Not every detail of the peptide structures is certain; ends, links or a residue may be inferred.
Biological target: T1, hMC1R (Homo sapiens, UniProt Q01726)
T1 construct: purchased Perkin Elmer
Assay: In vitro competitive binding assay on human MC1R membranes vs 125I-NDP-αMSH
Conditions: n ≥ 3; read-out: Inhibition constants (Ki) hMC1R

The chains behind the UniProt entries cited, without tags or fusion partners. Where a name states a change or a piece, a line headed by the entry shows the natural chain unless it says otherwise.
UniProt Q01726: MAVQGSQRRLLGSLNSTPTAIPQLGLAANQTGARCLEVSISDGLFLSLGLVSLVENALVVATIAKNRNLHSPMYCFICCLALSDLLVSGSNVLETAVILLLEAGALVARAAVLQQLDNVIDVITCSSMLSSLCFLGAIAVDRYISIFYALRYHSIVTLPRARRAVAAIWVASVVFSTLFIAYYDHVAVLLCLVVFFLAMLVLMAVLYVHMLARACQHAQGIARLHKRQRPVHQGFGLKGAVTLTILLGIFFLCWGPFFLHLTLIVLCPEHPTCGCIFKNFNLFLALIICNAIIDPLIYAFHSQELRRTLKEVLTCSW

Question: For `CCCC[C@H](NC(=O)CN1CCC(NC(=O)CN2CCN(CC(=O)O)CCN(CC(=O)O)CCN(CC(=O)O)CC2)CC1)C(=O)N[C@H]1CC(=O)NCCCC[C@@H](C(N)=O)N(C)C(=O)[C@H](Cc2c[nH]c3ccccc23)N(C)C(=O)[C@H](CCCNC(=N)N)N(C)C(=O)[C@@H](Cc2ccccc2)NC(=O)[C@H](Cc2c[nH]cn2)N(C)C1=O` [^natGa-CCZ01099, metal not drawn], which Ki is on record?
Answer: The Ki was 6.62 ± 6.31 nM.

— patent US11395857B2, “Radiolabeled melanocortin 1 receptor-specific alpha-melanocyte-stimulating hormone analogues for imaging or therapy” (PROVINCIAL HEALTH SERVICES AUTHORITY, priority 2018, dated 2022)
